# Source: US8691949B2, “Peptide having anti-diabetic activity and use thereof” (MG Pharma Inc., priority 2008, dated 2014)
# Part of at least one peptide drawing is inferred or uncertain, most often the ends. Residues, ends and D or L forms follow the SMILES beside them.
# Assays:
# [1] = tested on: sucrose-loaded normal mice (ICR mice); assay: Blood glucose level in sucrose-loaded ICR mice after oral LSEL peptide; type: in vivo, mouse; conditions: 25 mg/kg oral, with sucrose 2 g/kg, vs control group
# [2] = tested on: glucose-loaded normal mice (ICR mice); assay: Blood glucose level in glucose-loaded normal mice after oral or subcutaneous LSEL peptide; type: in vivo, mouse; conditions: vs control group
# [3] = tested on: glucose-loaded KK-Ay mouse models of type 2 diabetes; assay: Blood glucose level in glucose-loaded KK-Ay mouse models of type 2 diabetes after oral LSEL peptide; type: in vivo; conditions: with glucose 2 g/kg, KK-Ay mice, vs control group
# [4] = tested on: glucose-loaded normal mice (ICR mice); assay: Plasma insulin concentration in glucose-loaded ICR mice after oral LSEL peptide; type: in vivo, mouse; conditions: 50 mg/kg oral, with glucose 2 g/kg, vs control group
# [5] = p < 0.05, listed as LSEL peptide
structure (smiles),measurement,setting,value
"CC(C)C[C@H](NC(=O)[C@H](CCC(=O)O)NC(=O)[C@H](CO)NC(=O)[C@@H](N)CC(C)C)C(=O)O [LSEL, Leu-Ser-Glu-Leu] (H-LSEL-OH)",Blood glucose AUC0-2 h suppression (%),[1]; p < 0.05,22.9 p < 0.05%
same,Blood glucose AUC0-2 h suppression (%),[1]; [5],22.9%
same,Blood glucose AUC0-2 h suppression (%),"[2]; 10 mg/kg oral, with glucose 2 g/kg",1.7%
same,Blood glucose AUC0-2 h suppression (%),"[2]; 25 mg/kg oral, with glucose 2 g/kg",7.4%
same,Blood glucose AUC0-2 h suppression (%),"[2]; 25 mg/kg subcutaneous, after oral glucose 2 g/kg, p < 0.05",23.2%
same,Blood glucose AUC0-2 h suppression (%),"[2]; 50 mg/kg oral, with glucose 2 g/kg, p < 0.1",13.2%
same,Blood glucose AUC0-2 h suppression (%),[3]; 25 mg/kg oral,3.6%
same,Blood glucose AUC0-2 h suppression (%),[3]; 50 mg/kg oral,8.8%
same,Blood glucose AUC0-2 h suppression (%),"[3]; 100 mg/kg oral, p < 0.1",15.3%
same,Increase in insulin AUC0-2 h (%),[4]; p < 0.05,252.0 p < 0.05%
same,Increase in insulin AUC0-2 h (%),[4]; [5],252.0%
